Out of some 320,000 compounds screened, about 22,000 (6.9%) were called active. Inconclusive means that the source gave no clear call. Such entries were picked first, then a sample of the others. The call rests on the fitted dose curve; in most records, active means well fitted inhibition curve with a large enough effect; inconclusive means small, poorly fitted or top-dose-only effect, or another doubt; inactive means no such curve, though single readings can be large or run the other way. Potencies beside an inconclusive call are fits to weak or partial responses and may not hold up.
experiment: Primary qHTS for delayed death inhibitors of the malarial parasite plastid, 96 hour incubation; details: P. falciparum luciferase reporter growth; series mostly up to 28.7 µM
Method in brief: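 Erythrocytes infected with luciferase-expressing P. falciparum were dispensed at 2% hematocrit and 0.05% parasitemia (final), then incubated with compounds 96 hours at 37 C in 5% CO2. Luminescence after detection reagent addition reported growth.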
Potency means the concentration at half of the fitted maximal effect.

SMILES | Potency
CN1C(=O)/C(=C2/C=CC=CN2C)OC1=S | inactive
COC(=O)c1ccc(CN2CCSC2=N)cc1 | inconclusive: 20.8 µM [inhibitor, single point]
CCN1C(=NCCc2cccnc2)N[C@@H](c2ccccc2)C(C(=O)OC)=C1C | inactive
COc1ccc(/C=C(\C#N)C(=O)NCC(c2ccc(F)cc2)N2CCOCC2)cc1 (stereo unspecified) | inconclusive: 11.7 µM [inhibitor, partial curve, poor fit]
Cc1cc(C(F)(F)F)cc(NNC(=O)NC(=O)c2ccccc2Cl)n1 | inactive
CC(C)(C)OC(=O)N[C@@H](C(=O)OC(C)(C)C)c1ccc(Br)cc1 | inconclusive: 13.1 µM [inhibitor, partial curve]
COc1ccc(CNC(=O)CN(c2ccc(C)cc2)S(=O)(=O)c2c(C)nn(C)c2C)cc1 | inconclusive: 18.5 µM [inhibitor, partial curve, poor fit]
COCCN(C(=O)C1CC1)c1nnc(-c2cccc(C)c2)s1 | inactive
COC(=O)c1c(C)[nH]c(C(=O)NCc2ccco2)c1C | inactive
CC1(C)Cc2cccc(OCC(=O)N3CCN(c4ccc([N+](=O)[O-])cc4)CC3)c2O1 | active: 5.22 µM
CC(C)(C)OC(=O)NCCCCCNC(=O)c1[nH]cnc1C(=O)NC1CCN(C(=O)OC(C)(C)C)CC1 | active: 2.08 µM
CC(C)CC(=O)Nc1ccc(S(=O)(=O)N2CCCC2)cc1 | inconclusive: 11.7 µM [inhibitor, single point]
COc1ccc(-n2c(SCc3cn4c(C)cccc4n3)nc3ccccc3c2=O)cc1OC | inconclusive: 18.5 µM [inhibitor, single point]
CC1(C)N=C(N)NC(Nc2ccccc2)=N1 | inconclusive: 0.262 µM [inhibitor, full curve]
COC(=O)CS(=O)(=O)c1cc(Br)cc2c1N(C(C)=O)CC2 | inconclusive: 18.5 µM [inhibitor, partial curve, poor fit]
Cc1cc(OCC(=O)N(Cc2ccco2)c2c(N)n(Cc3ccccc3)c(=O)[nH]c2=O)ccc1Cl | inconclusive: 10.4 µM [inhibitor, partial curve, poor fit]
CCn1ncc([N+](=O)[O-])c1C(=O)NC1CCCCC1 | inactive
COc1ccc(OC)c(S(=O)(=O)NCCOC23CC4CC(CC(C4)C2)C3)c1 | inconclusive: 14.7 µM [inhibitor, partial curve]
CCCCCCSc1ncc(C#N)c(N)n1 | inactive
O=C(NCC1CCCO1)C(c1ccc(F)cc1)N(Cc1ccc(F)cc1)C(=O)Cn1nnc(-c2cccs2)n1 (stereo unspecified) | inconclusive: 2.94 µM [inhibitor, full curve, poor fit]
CCOC(=O)C1=C(Cc2ccc(F)cc2)C(=O)c2ccccc2C1=O | active: 8.28 µM
CCOC(=O)c1c(NC(=O)CC2SC(N)=NC2=O)sc(C)c1C (stereo unspecified) | inactive
CCOc1ccccc1C(=O)N/N=C/c1ccoc1 | inconclusive: 18.5 µM [inhibitor, single point]
COc1ccc(OCC(=O)NC(=O)c2ccccc2)c([N+](=O)[O-])c1 | inactive

By substructure, the compounds so far containing an aryl thioether with sulfur outside any ring
SMILES | Potency
COc1ccc(-n2c(SCc3cn4c(C)cccc4n3)nc3ccccc3c2=O)cc1OC | inconclusive: 18.5 µM [inhibitor, single point]
CCCCCCSc1ncc(C#N)c(N)n1 | inactive

Looked up above:
Value for CC1(C)Cc2cccc(OCC(=O)N3CCN(c4ccc([N+](=O)[O-])cc4)CC3)c2O1 under Potency: active: 5.22 µM
Value for CCN1C(=NCCc2cccnc2)N[C@@H](c2ccccc2)C(C(=O)OC)=C1C under Potency: inactive
Value for COC(=O)c1c(C)[nH]c(C(=O)NCc2ccco2)c1C under Potency: inactive

More compounds

SMILES | Potency
CC1CCc2onc(C(=O)NCc3ccco3)c2C1 (stereo unspecified) | inconclusive: 20.8 µM [inhibitor, partial curve, poor fit]
CNC(=O)COC(=O)/C=C/c1cccc(F)c1 | inactive
CCn1c(SCc2ccc([N+](=O)[O-])cc2)nnc1C(C)NC(=O)c1ccccc1Br (stereo unspecified) | inconclusive: 0.329 µM [inhibitor, full curve, poor fit]
O=C(Nc1ccc(-c2csc(Nc3ccccc3)n2)cc1)c1cc([N+](=O)[O-])cc(C(F)(F)F)c1 | active: 0.465 µM
CCOc1ccc(/C=C/c2nc(C#N)c(NCCCOC)o2)cc1 | inactive
CC1CN(C(=S)Nc2cccc(Cl)c2)CC(C)O1 (stereo unspecified) | inconclusive: 5.86 µM [inhibitor, partial curve, poor fit]
CCN1CCN(C(=O)Cc2c(C)n(C(=O)c3ccc(Cl)cc3)c3ccc(OC)cc23)CC1 | inconclusive: 11.7 µM [inhibitor, partial curve, poor fit]
CC(C)(C)OC(=O)NCCCC[C@H](NC(=O)c1[nH]cnc1C(=O)Nc1ccc(CNC(=O)OC(C)(C)C)cc1)C(=O)OC(C)(C)C | active: 3.29 µM
O=C1N(c2ccccc2C(F)(F)F)O[C@@]1(c1ccccc1)C1CCCC1 | active: 0.828 µM
O=C(Cc1cccc2ccccc12)N/N=C/c1ccc(Sc2nc3ccccc3s2)o1 | inconclusive: 7.38 µM [inhibitor, partial curve, poor fit]
CCOC(=O)/C=C1\SCC(=O)N1CC(=O)NC12CC3CC(CC(C3)C1)C2 | inactive
Cc1nn(Cc2ccccc2)c(Cl)c1/C=C/C(=O)OCC(=O)N1CCCC1=O | inconclusive: 1.47 µM [inhibitor, single point]
CCOC(=O)c1cnc(SC)nc1Oc1cccc(NC(=O)c2cccc(Cl)c2Cl)c1 | inactive
COc1cccc(N2C(=O)N(c3ccccc3Cl)C3CS(=O)(=O)CC32)c1 (stereo unspecified) | inactive
Cc1ccc2c(c1)N(CCC(=O)NC1CCCCC1C)C(=O)CO2 (stereo unspecified) | inconclusive: 1.85 µM [inhibitor, single point]
O=C(O)C1CCCCC1C(=O)Nc1ccc(S(=O)(=O)N2CCCCCC2)cc1 (stereo unspecified) | inactive
O=C(Cn1c(=O)oc2cc(S(=O)(=O)N3CCCCCC3)ccc21)NC1CCCCCCC1 | active: 11.7 µM
O=C(/C(=C/O)N=Nc1cccc(C(F)(F)F)c1)c1ccccc1 | inconclusive: 18.5 µM [inhibitor, single point]
CCN1CCN(c2nn3c(=O)c4ccccc4nc3c3ccccc23)CC1 | inconclusive: 0.0828 µM [inhibitor, full curve, poor fit]
Cc1cc(C)c(NC(=O)OCCN2CCOCC2)c(C)c1 | active: 0.233 µM
CCc1c(C)sc(NC(=O)c2cc(CC(C)C)on2)c1C#N | active: 13.1 µM
COc1ccc(OCCNC(=O)c2ccccc2OCC(=O)Nc2ccc(NC(C)=O)cc2)cc1 | inactive
O=C(c1ccccn1)N1CCCC(N2CCN(c3ccc(F)cc3)CC2)C1 (stereo unspecified) | inactive
CCOc1cc(C(C(=O)NCC2CCCO2)N(C(=O)Cn2nnc3ccccc32)c2ccccc2C(C)=O)ccc1O (stereo unspecified) | inconclusive: 13.1 µM [inhibitor, single point]

SMILES | Potency
NC(=O)c1cc(-c2csc(NCCc3ccccc3)n2)ccc1O | inconclusive: 18.5 µM [inhibitor, single point]
CC(C)=CCN1CCN(Cc2cccc3nccnc23)CC1CCO (stereo unspecified) | inconclusive: 0.522 µM [inhibitor, full curve, poor fit]
Cc1ccc(CSCC(=O)Nc2ccccc2)cc1 | inconclusive: 14.7 µM [inhibitor, partial curve]
O=C(NC(Cc1ccccc1)C(=O)O)c1ccco1 (stereo unspecified) | inconclusive: 11.7 µM [inhibitor, partial curve]
COc1ccc(N2CCN(C3CCCN(C(=O)CN4CCCCC4=O)C3)CC2)cc1 (stereo unspecified) | inconclusive: 10.4 µM [inhibitor, partial curve, poor fit]
CC1CCCN(CCC(=O)Nc2ccc(F)c(F)c2)C1 (stereo unspecified) | inconclusive: 0.0738 µM [inhibitor, full curve, poor fit]
Fc1ccc(CN2CC[C@H]3C=CCc4cccc(c43)C2)cc1 | inconclusive: 8.28 µM [inhibitor, partial curve]
CCOC(=O)[C@H]1[C@H]2COc3cc(OC)ccc3[C@@H]2N2C(=O)c3cc(OC)ccc3NC(=O)[C@@]12C | active: 6.57 µM
Cc1ccc(-n2nnnc2SC(C)C(=O)Nc2ccccc2-c2ccccc2)cc1 (stereo unspecified) | active: 9.28 µM
Cn1cccc1/C=N/NC(=O)c1sc2cc(Cl)ccc2c1Cl | active: 2.33 µM
CC1(C)OC(c2ccccc2)=C/C(=C\C=N\NC(=O)c2ccncc2)O1 | inconclusive: 18.5 µM [inhibitor, single point]
CCC1Oc2ccc(C)cc2N(CC(=O)N2CCOCC2)C1=O (stereo unspecified) | inconclusive: 0.329 µM [inhibitor, full curve, poor fit]
O=C(O)c1ccc(NS(=O)(=O)c2ccc3c(c2)C(=O)c2cc(S(=O)(=O)Nc4ccc(C(=O)O)cc4)ccc2-3)cc1 | active: 0.329 µM
COC(=O)c1[nH]c2c(c1C)C(=O)CC(c1ccccc1)C2 (stereo unspecified) | inactive
CCC1(c2ccccc2)NC(=O)N(Cc2ccc(C(=O)OC)cc2)C1=O (stereo unspecified) | inconclusive: 16.5 µM [inhibitor, single point]
CCOC(=O)c1c(-c2ccccc2)oc2ccc(OCC)cc12 | inactive
CCOC(=O)C1=C(C)N=C2SC(C)C(=O)N2C1c1cccc(F)c1 (stereo unspecified) | inconclusive: 18.5 µM [inhibitor, single point]
Cc1ccc(-c2nc3ccccc3c(=O)n2-c2c(C)n(C)n(-c3ccccc3)c2=O)cc1 | inactive
c1ccc(-n2nnnc2-n2ccnc2)cc1 | inconclusive: 13.1 µM [inhibitor, single point]
N/C(=N\OC(=O)c1cnn(-c2ccccc2)c1C(F)(F)F)c1cc(C(F)(F)F)cc(C(F)(F)F)c1 | inconclusive: 11.7 µM [inhibitor, single point]
C/C=C/C1=CC(=O)C[C@H](c2ccc3c(c2)OCO3)C1 | inconclusive: 6.57 µM [inhibitor, single point]
O=C(COc1ccc(Cl)cc1Cl)N(Cc1ccco1)C1CCS(=O)(=O)C1 (stereo unspecified) | inconclusive: 8.28 µM [inhibitor, partial curve]
Cc1cccc(CC(=O)N2CCOCC2)c1 | inconclusive: 18.5 µM [inhibitor, single point]

From PubChem BioAssay AID504834 (National Center for Advancing Translational Sciences (NCATS), 2011)
